According to article PMC2807033:
No constants are given. Whether binding was seen depends on the method and setting.

By UniProt entry, the sequences of proteins in these tests, tags left out. Residues count along the entry.
UniProt P09980, residues 641-673: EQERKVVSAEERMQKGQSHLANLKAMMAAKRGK
UniProt P0ACB0: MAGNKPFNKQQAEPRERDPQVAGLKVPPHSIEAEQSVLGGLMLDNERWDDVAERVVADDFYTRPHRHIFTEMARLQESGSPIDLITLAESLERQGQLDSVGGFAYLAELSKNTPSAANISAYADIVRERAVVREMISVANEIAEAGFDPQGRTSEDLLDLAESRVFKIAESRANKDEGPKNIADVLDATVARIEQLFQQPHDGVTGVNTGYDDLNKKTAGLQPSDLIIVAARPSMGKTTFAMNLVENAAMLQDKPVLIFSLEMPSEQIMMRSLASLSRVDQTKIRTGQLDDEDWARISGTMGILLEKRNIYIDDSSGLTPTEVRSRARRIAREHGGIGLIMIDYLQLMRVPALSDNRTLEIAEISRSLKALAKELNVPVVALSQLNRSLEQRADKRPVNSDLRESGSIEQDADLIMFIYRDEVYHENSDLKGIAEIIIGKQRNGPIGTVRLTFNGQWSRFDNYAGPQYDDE

How the values were obtained:
[1] = target: C33^Rep peptide (synthetic peptide corresponding to the C-terminal 33 residues of Rep) (E. coli) (UniProt P09980); assay: SPR; C33^Rep peptide (260 resonance units) surface-immobilised via an N-terminal biotin tag; DnaB 1 μM monomers and/or DnaC 4 μM monomers, or increasing concentrations of DnaC; both purified
[2] = target: E. coli replicative helicase DnaB, purified (E. coli) (UniProt P0ACB0); assay: native gel or EMSA; forked DNA with 3′ and 5′ ssDNA arms; Rep or UvrD at 1, 5, 10 and 25 nM, DnaB at 100 nM hexamers; both purified
[3] = target: E. coli replicative helicase DnaB, purified (E. coli) (UniProt P0ACB0); assay: SPR; E. coli and B. stearothermophilus DnaB surface-immobilised (860 and 1705 resonance units); Rep and UvrD flowed at 200, 500, 1000, 2000 and 4000 nM; both purified

Row | binding [1] | binding [3] | Binder | binding [2]
1 | no binding (tested: 4 μM monomers) | – | DnaC helicase loader (E. coli) (protein, UniProt P0AEF0 1-245) MKNVGDLMQRLQKMMPAHIKPAFKTGEELLAWQKEQGAIRSAALERENRAMKMQRTFNRSGIRPLHQNCSFENYRVECEGQMNALSKARQYVEEFDGNIASFIFSGKPGTGKNHLAAAICNELLLRGKSVLIITVADIMSAMKDTFRNSGTSEEQLLNDLSNVDLLVIDEIGVQTESKYEKVIINQIVDRRSSSKRPTGMLTNSNMEEMTKLLGERVMDRMRLGNSLWVIFNWDSYRSRVTGKEY | –
2 | – | no binding (tested: 4000 nM) | UvrD helicase (E. coli) (enzyme, UniProt P03018 1-720) MDVSYLLDSLNDKQREAVAAPRSNLLVLAGAGSGKTRVLVHRIAWLMSVENCSPYSIMAVTFTNKAAAEMRHRIGQLMGTSQGGMWVGTFHGLAHRLLRAHHMDANLPQDFQILDSEDQLRLLKRLIKAMNLDEKQWPPRQAMWYINSQKDEGLRPHHIQSYGNPVEQTWQKVYQAYQEACDRAGLVDFAELLLRAHELWLNKPHILQHYRERFTNILVDEFQDTNNIQYAWIRLLAGDTGKVMIVGDDDQSIYGWRGAQVENIQRFLNDFPGAETIRLEQNYRSTSNILSAANALIENNNGRLGKKLWTDGADGEPISLYCAFNELDEARFVVNRIKTWQDNGGALAECAILYRSNAQSRVLEEALLQASMPYRIYGGMRFFERQEIKDALSYLRLIANRNDDAAFERVVNTPTRGIGDRTLDVVRQTSRDRQLTLWQACRELLQEKALAGRAASALQRFMELIDALAQETADMPLHVQTDRVIKDSGLRTMYEQEKGEKGQTRIENLEELVTATRQFSYNEEDEDLMPLQAFLSHAALEAGEGQADTWQDAVQLMTLHSAKGLEFPQVFIVGMEEGMFPSQMSLDEGGRLEEERRLAYVGVTRAMQKLTLTYAETRRLYGKEVYHRPSRFIGELPEECVEEVRLRATVSRPVSHQRMGTPMVENDSGYKLGQRVRHAKFGEGTIVNMEGSGEHSRLQVAFQGQGIKWLVAAYARLESV | no binding (tested: UvrD up to 25 nM, DnaB 100 nM hexamers)
